Experimental data: article PMC10435519

Target: T1, PPARα (in HEK293T cells) (UniProt Q07869)
T1 sequence: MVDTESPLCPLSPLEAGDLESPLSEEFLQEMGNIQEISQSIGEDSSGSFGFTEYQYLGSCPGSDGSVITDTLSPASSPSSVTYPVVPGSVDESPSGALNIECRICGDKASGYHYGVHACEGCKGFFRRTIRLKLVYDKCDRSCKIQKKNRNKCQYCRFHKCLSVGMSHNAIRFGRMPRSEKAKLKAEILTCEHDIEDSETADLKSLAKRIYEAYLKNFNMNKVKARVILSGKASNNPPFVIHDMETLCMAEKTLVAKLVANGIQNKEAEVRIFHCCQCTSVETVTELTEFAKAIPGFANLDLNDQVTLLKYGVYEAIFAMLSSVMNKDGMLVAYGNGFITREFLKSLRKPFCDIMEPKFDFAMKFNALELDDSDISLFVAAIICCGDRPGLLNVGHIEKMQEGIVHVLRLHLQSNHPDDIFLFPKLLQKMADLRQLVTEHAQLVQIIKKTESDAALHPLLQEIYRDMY
Experiment: co-IP; HEK293T cells co-transfected with NCoR1 (WT or T1619A/T2124A) and PAK4; co-IP and immunoblot

binding: binds
Substance: NCoR1 T1619A/T2124A double-mutant (mouse)

Results are given in words; binding and its absence hold for the method and conditions named. In cells and extracts the contact can be indirect. Binding calls can cover weak binding; strength is not graded here.
